No constants are given. Whether binding was seen depends on the method and setting. Binding seen in cells or lysates may run through a third protein. Some binding calls cover weakened binding; strength is not graded here. For some of these results: Sequences can lack the tags named with a protein.

Chains of the proteins cited; added tags and fusions are not shown.
UniProt Q15910: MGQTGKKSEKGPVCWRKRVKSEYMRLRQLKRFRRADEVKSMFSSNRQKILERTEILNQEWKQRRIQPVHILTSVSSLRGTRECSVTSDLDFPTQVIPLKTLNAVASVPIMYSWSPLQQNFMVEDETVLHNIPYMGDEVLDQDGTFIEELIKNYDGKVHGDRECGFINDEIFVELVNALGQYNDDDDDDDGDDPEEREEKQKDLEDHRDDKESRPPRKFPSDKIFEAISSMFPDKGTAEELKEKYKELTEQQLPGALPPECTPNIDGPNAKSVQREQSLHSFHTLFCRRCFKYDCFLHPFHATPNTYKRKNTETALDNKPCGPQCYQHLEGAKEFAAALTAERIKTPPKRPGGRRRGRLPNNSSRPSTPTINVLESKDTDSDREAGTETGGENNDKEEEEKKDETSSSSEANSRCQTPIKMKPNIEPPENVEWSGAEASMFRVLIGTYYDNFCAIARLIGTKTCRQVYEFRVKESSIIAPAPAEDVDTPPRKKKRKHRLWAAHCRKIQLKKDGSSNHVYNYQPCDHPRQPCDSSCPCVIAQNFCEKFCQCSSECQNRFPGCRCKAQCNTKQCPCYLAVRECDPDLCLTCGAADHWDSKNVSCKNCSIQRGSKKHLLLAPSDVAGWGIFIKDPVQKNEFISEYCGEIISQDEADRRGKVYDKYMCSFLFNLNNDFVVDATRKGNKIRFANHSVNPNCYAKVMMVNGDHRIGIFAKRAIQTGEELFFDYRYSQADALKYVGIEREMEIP

Assay [1] has as its target Ezh2, a component of polycomb repressive complex 2 (human) (UniProt Q15910). Briefly: co-IP, hESC whole cell lysate (FIG. 21B).
The target is the same in assay [2]. The experiment in a line: co-IP from hESC whole cell lysate with anti-PRDM14 and anti-Ezh2 antibody, western with anti-PRDM14 or anti-Ezh2 antibody (FIG. 21B).
Assay [3] deals with Myc tagged EZH2 protein (UniProt Q15910). The experiment in a line: co-IP, co-transfected 293T cells (FIG. 21C).
For assay [4] the target is unchanged. Briefly: co-IP from lysate of 293T cells co-transfected with HA tagged PRDM14 and Myc tagged EZH2, with anti-HA and anti-Myc antibody (FIG. 21C).

B1: PR domain-containing protein 14 (PRDM14) (protein)
chain: MALPRPSEAVPQDKVCYPPESSPQNLAAYYTPFPSYGHYRNSLATVEEDFQPFRQLEAAASAAPAMPPFPFRMAPPLLSPGLGLQREPLYDLPWYSKLPPWYPIPHVPREVPPFLSSSHEYAGASSEDLGHQIIGGDNESGPCCGPDTLIPPPPADASLLPEGLRTSQLLPCSPSKQSEDGPKPSNQEGKSPARFQFTEEDLHFVLYGVTPSLEHPASLHHAISGLLVPPDSSGSDSLPQTLDKDSLQLPEGLCLMQTVFGEVPHFGVFCSSFIAKGVRFGPFQGKVVNASEVKTYGDNSVMWEIFEDGHLSHFIDGKGGTGNWMSYVNCARFPKEQNLVAVQCQGHIFYESCKEIHQNQELLVWYGDCYEKFLDIPVSLQVTEPGKQPSGPSEESAEGYRCERCGKVFTYKYYRDKHLKYTPCVDKGDRKFPCSLCKRSFEKRDRLRIHILHVHEKHRPHKCSTCGKCFSQSSSLNKHMRVHSGDRPYQCVYCTKRFTASSILRTHIRQHSGEKPFKCKYCGKSFASHAAHDSHVRRSHKEDDGCSCSICGKIFSDQETFYSHMKFHEDY
Turning to B1, the binding result in assay [1] and in assay [2] was “binds” each time.

B2: HA tagged PRDM14 (protein, not shown: small tags and cut ends)
chain: B1 chain
For B2, the binding result in assay [3] and in assay [4] was “binds” throughout.

The values above are taken from US20130078720A1, “METHOD FOR INDUCING PLURIPOTENCY IN HUMAN SOMATIC CELLS WITH PRDM14 OR NFRKB” (Agency for Science, Technology and Research, published 2013).
